PubChem BioAssay AID504774 – Drosophila RNAi Screening Center | 2011

Assay: 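Fly genes whose loss alters survival after alkylation damage to DNA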 (primary screen)
Cell system: Drosophila Kc167 cells
Knock-down reagent: long dsRNA against Drosophila genes, about 0.25 µg dsRNA per well
Timing: about 6 days: 3 days knock-down, then 3 days with or without MMS
Treatment: methyl methanesulphonate 0.004% (w/v) for 3 days after knock-down
Measured: 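Viability in wells given MMS, read as ATP luminescence, normalised by quantiles plate by plate and averaged across replicates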
Reading the numbers: mean viability with MMS and viability with MMS: higher = more surviving cells after MMS
In all, the deposit lists about 23,000 reagents; shown is an unselected part of those with a known target gene and a result. 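Values are quantile-normalised luminescence on an arbitrary scale; higher means more cells surviving MMS.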 Names joined by + are all predicted targets of the reagent.

| gene | PubChem SID | mean viability with MMS | viability with MMS, replicate 1 | viability with MMS, replicate 2 |
| --- | --- | --- | --- | --- |
| CG4080 | SID104190190 | 3.58e6 | 4.14e6 | 3.99e6 |
| pigs (pickled eggs) | SID104197264 | 3.59e6 | 4.04e6 | 4.07e6 |
| pigs (pickled eggs) | SID104198126 | 3.55e6 | 3.87e6 | 4.18e6 |
| pigs (pickled eggs) | SID104198127 | 3.58e6 | 3.92e6 | 4.22e6 |
| Naa30B (N(alpha)-acetyltransferase 30 B) | SID104188037 | 3.59e6 | 4.07e6 | 4.04e6 |
| CG1698 | SID104186432 | 3.59e6 | 4.07e6 | 4.06e6 |
| pnr (pannier) | SID104196819 | 3.74e6 | 4.16e6 | 4.24e6 |
| CG31693 | SID104183466 | 3.56e6 | 4.11e6 | 3.96e6 |
| RpS6 (Ribosomal protein S6) | SID104198504 | 2.46e6 | 3.14e6 | 2.90e6 |
| Orct2 (Organic cation transporter 2) | SID104194405 | 3.52e6 | 4.04e6 | 3.96e6 |
| Cpr100A (Cuticular protein 100A) | SID104194257 | 3.61e6 | 4.08e6 | 4.11e6 |
| BubR1 (Bub1-related kinase) | SID104184630 | 3.32e6 | 3.78e6 | 3.63e6 |
| Obp47a (Odorant-binding protein 47a) | SID104186047 | 3.42e6 | 3.81e6 | 3.96e6 |
| pxb | SID104192902 | 3.23e6 | 3.68e6 | 3.78e6 |
| pxb | SID104194788 | 3.75e6 | 3.69e6 | 3.67e6 |
| pxb | SID104194789 | 3.79e6 | 4.35e6 | 4.23e6 |
| pxb | SID104201756 | 3.71e6 | 4.11e6 | 4.20e6 |
| p38b (p38b MAP kinase) | SID104183378 | 3.68e6 | 4.08e6 | 4.20e6 |
| CG4477 | SID104190217 | 3.66e6 | 4.25e6 | 4.00e6 |
| CG3491 | SID104181726 | 3.53e6 | 4.01e6 | 4.00e6 |
| CG18428 | SID104195118 | 3.45e6 | 3.87e6 | 3.92e6 |
| gNacalpha | SID104180446 | 3.46e6 | 3.96e6 | 3.86e6 |
| CG31221 | SID104194127 | 3.51e6 | 3.88e6 | 4.08e6 |
| CG31221 | SID104196009 | 3.55e6 | 3.88e6 | 4.16e6 |
| knon (knotted onions) | SID104186841 | 3.56e6 | 3.97e6 | 4.10e6 |
| TyrR (Tyramine receptor) | SID104196034 | 3.57e6 | 4.08e6 | 4.00e6 |
| roh (reduction of Rh1) | SID104183795 | 3.40e6 | 3.88e6 | 3.77e6 |
| Dnali1 (Dynein axonemal light intermediate chain 1) | SID104195950 | 3.75e6 | 4.21e6 | 4.30e6 |
| MsR1 (Myosuppressin receptor 1) | SID104188407 | 3.49e6 | 4.03e6 | 3.89e6 |
| AgmNAT (Agmatine N-acetyltransferase) | SID104197864 | 3.59e6 | 4.04e6 | 4.11e6 |
| Su(var)2-HP2 | SID104185996 | 3.51e6 | 3.92e6 | 4.02e6 |
| CG1773 | SID104186480 | 3.77e6 | 4.22e6 | 4.31e6 |
| Sytalpha (Synaptotagmin alpha) | SID104182661 | 3.49e6 | 4.07e6 | 3.86e6 |
| CG1889 + CG43386 | SID104197771 | 3.89e6 | 4.38e6 | 4.38e6 |
| DppIII (Dipeptidyl aminopeptidase III) | SID104196033 | 3.40e6 | 3.85e6 | 3.88e6 |
| Eig71Ee (Ecdysone-induced gene 71Ee) | SID104190944 | 3.52e6 | 4.02e6 | 3.96e6 |
| Pino (Pinocchio) | SID104179830 | 3.21e6 | 3.66e6 | 3.63e6 |
| Pino (Pinocchio) | SID104180454 | 3.40e6 | 3.78e6 | 3.80e6 |
| Cdk4 (Cyclin-dependent kinase 4) | SID104187150 | 3.63e6 | 4.08e6 | 4.16e6 |
| siz (schizo) | SID104191414 | 3.46e6 | 3.92e6 | 3.91e6 |
| siz (schizo) | SID104191481 | 3.39e6 | 3.80e6 | 3.84e6 |
| siz (schizo) | SID104191482 | 3.35e6 | 3.70e6 | 3.85e6 |
| eIF3i (eukaryotic translation initiation factor 3 subunit i) | SID104183256 | 2.57e6 | 3.02e6 | 2.84e6 |
| CG18094 | SID104182447 | 3.51e6 | 3.94e6 | 4.00e6 |
| CG8870 | SID104196244 | 3.74e6 | 4.34e6 | 4.16e6 |
| CG2209 | SID104199635 | 3.53e6 | 3.99e6 | 4.00e6 |
| CG43867 | SID104197374 | 3.46e6 | 3.96e6 | 3.91e6 |
| CG43867 | SID104197628 | 3.63e6 | 4.13e6 | 4.10e6 |
| CG43867 | SID104197629 | 3.53e6 | 3.89e6 | 4.12e6 |
| CG43867 | SID104197735 | 3.59e6 | 4.20e6 | 3.96e6 |
| CG30088 | SID104201431 | 3.38e6 | 3.80e6 | 3.94e6 |
| CG11076 | SID104196989 | 3.60e6 | 4.14e6 | 4.04e6 |
| CG17752 | SID104195054 | 3.51e6 | 3.76e6 | 4.19e6 |
| rictor (rapamycin-insensitive companion of Tor) | SID104199863 | 3.61e6 | 4.21e6 | 3.94e6 |
| CG3419 (retired record) | SID104184160 | 3.58e6 | 4.09e6 | 4.04e6 |
| CG3419 (retired record) | SID104184161 | 3.62e6 | 4.14e6 | 4.08e6 |
| Lsm12a (LSM12 homolog a) | SID104199494 | 3.65e6 | 4.06e6 | 4.19e6 |
| EloB (Elongin B) | SID104196455 | 3.59e6 | 4.04e6 | 4.10e6 |
| ND-B17 (NADH dehydrogenase (ubiquinone) B17 subunit) | SID104181773 | 3.60e6 | 4.08e6 | 4.08e6 |
| cysu (Curly Su) | SID104195694 | 3.49e6 | 3.94e6 | 3.98e6 |
| Chchd3 (Coiled-coil-helix-coiled-coil-helix domain containing 3) | SID104196773 | 4.13e6 | 5.04e6 | 4.76e6 |
| CG10669 | SID104194053 | 3.24e6 | 3.66e6 | 3.68e6 |
| CG7231 | SID104182826 | 3.69e6 | 4.26e6 | 4.09e6 |
| Ppi1 (Protein phosphatase 1c interacting protein 1) | SID104195213 | 3.46e6 | 3.95e6 | 3.91e6 |
| Sld5 | SID104194684 | 3.53e6 | 4.07e6 | 3.92e6 |
| tctn + B9d2 | SID104182952 | 3.47e6 | 3.83e6 | 4.03e6 |
| Tsp74F (Tetraspanin 74F) | SID104190300 | 3.60e6 | 4.07e6 | 4.07e6 |
| Gr97a (Gustatory receptor 97a) | SID104193594 | 3.38e6 | 3.77e6 | 3.86e6 |

Reprinted from the entries so far (4 entries):
| gene | PubChem SID | mean viability with MMS | viability with MMS, replicate 1 | viability with MMS, replicate 2 |
| --- | --- | --- | --- | --- |
| CG3419 (retired record) | SID104184160 | 3.58e6 | 4.09e6 | 4.04e6 |
| CG3419 (retired record) | SID104184161 | 3.62e6 | 4.14e6 | 4.08e6 |
| Lsm12a (LSM12 homolog a) | SID104199494 | 3.65e6 | 4.06e6 | 4.19e6 |
| EloB (Elongin B) | SID104196455 | 3.59e6 | 4.04e6 | 4.10e6 |
